Literature values in patent US20250134875A1, “FORMULATIONS OF ALK-5 KINASE INHIBITORS AND USES THEREOF” (Thirona Bio, Inc., priority 2023, published 2025).
At least one structure is not confirmed: it was looked up by name or label, or the drawing left a doubt.

System: rat PD models
Details: PD rat model, cited from earlier work

## Cc1cccc(-c2[nH]c(CNc3ccccc3F)nc2-c2ccc3ncnn3c2)n1 [Vactosertib]
  Fibrotic plaques: induced regression of fibrotic plaques
Recovered erectile function
  Expression of pSMAD2: reduced expression of pSMAD2
